# PubChem BioAssay AID1508587 | Peter MacCallum Cancer Centre – 2020
# Aim: 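Knockdowns that add to vemurafenib's cut in melanoma glycolysis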 (follow-up of hits)
# System: human WM266.4 melanoma cells with a BRAF V600 mutation
# Knock-down reagent: single siRNA against human genes, 25 nM
# Timing: 96 h
# Challenge: vemurafenib 300 nM (about IC25), given 48 h after transfection for 48 h
# Measurement: 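Per-cell lactate from absorbance divided by DAPI nucleus counts, compared with and without vemurafenib, relative to non-targeting siRNA, mean of 2 replicates; nuclear counts also give cell number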
# Scale: lactate per cell, drug vs no drug: higher = less drug-induced drop in lactate per cell; lactate per cell with vemurafenib: higher = more lactate per cell under drug
# Active means: 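Enhancer call for any duplex whose drug versus no-drug per-cell lactate ratio is below 0.55 (2 SD beneath non-targeting average); genes confirmed when at least 2 of their 4 duplexes qualify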
# The deposit covers about 1,600 reagents; below is a random part of them. Over the whole deposit, 623 (39%) are marked active. 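Calls are for each duplex; lactate ratios contain extreme outliers.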 Further read-outs or replicates are left out here.
target,PubChem SID,"lactate per cell, drug vs no drug",lactate per cell with vemurafenib,Outcome
KCNA4 (potassium voltage-gated channel subfamily A member 4),SID134236253,0.4,0.77,active
KCNA4 (potassium voltage-gated channel subfamily A member 4),SID134236254,0.51,1.34,active
KCNA4 (potassium voltage-gated channel subfamily A member 4),SID134236255,0.53,0.96,active
KCNA4 (potassium voltage-gated channel subfamily A member 4),SID134236256,0.62,1.38,inactive
AGFG1 (ArfGAP with FG repeats 1),SID134254477,0.98,1.29,inactive
AGFG1 (ArfGAP with FG repeats 1),SID134254478,0.39,0.8,active
AGFG1 (ArfGAP with FG repeats 1),SID134254479,0.62,1.25,inactive
AGFG1 (ArfGAP with FG repeats 1),SID134254480,0.6,1.08,inactive
PLXNA2 (plexin A2),SID134290093,0.5,0.47,active
PLXNA2 (plexin A2),SID134290094,0.43,4.85,active
PLXNA2 (plexin A2),SID134290095,0.64,0.79,inactive
PLXNA2 (plexin A2),SID134290096,0.47,0.94,active
TCEAL8 (transcription elongation factor A like 8),SID134271721,0.8,1.7,inactive
TCEAL8 (transcription elongation factor A like 8),SID134271722,0.48,1.15,active
TCEAL8 (transcription elongation factor A like 8),SID134271723,0.55,1.34,inactive
TCEAL8 (transcription elongation factor A like 8),SID134271724,0.64,0.82,inactive

Entries listed so far with an active call, once more:
target,PubChem SID,"lactate per cell, drug vs no drug",lactate per cell with vemurafenib,Outcome
KCNA4 (potassium voltage-gated channel subfamily A member 4),SID134236253,0.4,0.77,active
KCNA4 (potassium voltage-gated channel subfamily A member 4),SID134236254,0.51,1.34,active
KCNA4 (potassium voltage-gated channel subfamily A member 4),SID134236255,0.53,0.96,active
AGFG1 (ArfGAP with FG repeats 1),SID134254478,0.39,0.8,active
PLXNA2 (plexin A2),SID134290093,0.5,0.47,active
PLXNA2 (plexin A2),SID134290094,0.43,4.85,active
PLXNA2 (plexin A2),SID134290096,0.47,0.94,active
TCEAL8 (transcription elongation factor A like 8),SID134271722,0.48,1.15,active

The listing continues.
target,PubChem SID,"lactate per cell, drug vs no drug",lactate per cell with vemurafenib,Outcome
GARIN4 (golgi associated RAB2 interactor family member 4),SID134269413,0.55,1.16,inactive
GARIN4 (golgi associated RAB2 interactor family member 4),SID134269414,0.55,1.78,inactive
GARIN4 (golgi associated RAB2 interactor family member 4),SID134269415,0.55,0.86,inactive
GARIN4 (golgi associated RAB2 interactor family member 4),SID134269416,0.96,2.64,inactive
PAEP (progestagen associated endometrial protein),SID134248438,0.48,1.09,active
PAEP (progestagen associated endometrial protein),SID135613095,0.72,1.39,inactive
PAEP (progestagen associated endometrial protein),SID135613096,0.52,0.56,active
PAEP (progestagen associated endometrial protein),SID135613097,0.41,1.18,active
NOX4 (NADPH oxidase 4),SID134248941,0.55,0.9,inactive
NOX4 (NADPH oxidase 4),SID134248942,0.57,1.64,inactive
NOX4 (NADPH oxidase 4),SID134248943,0.54,0.7,active
NOX4 (NADPH oxidase 4),SID134248944,0.42,1.53,active
SHC1 (SHC adaptor protein 1),SID56478376,0.65,1.1,inactive
SHC1 (SHC adaptor protein 1),SID56478377,0.52,1.18,active
SHC1 (SHC adaptor protein 1),SID56478378,0.46,0.49,active
SHC1 (SHC adaptor protein 1),SID135615667,0.87,2.09,inactive
EPC2 (enhancer of polycomb 2),SID134272737,0.54,0.62,active
EPC2 (enhancer of polycomb 2),SID134272738,0.16,1.24,active
EPC2 (enhancer of polycomb 2),SID134272739,0.6,3.83,inactive
EPC2 (enhancer of polycomb 2),SID134272740,0.52,1.01,active
